The record followed here is the supplement of paper PMC11237882.

This is one part of the list. Values are worked out from sequencing counts and are noisy.

The chains are these.
T1: Homer1 EVH1 domain
T1 chain: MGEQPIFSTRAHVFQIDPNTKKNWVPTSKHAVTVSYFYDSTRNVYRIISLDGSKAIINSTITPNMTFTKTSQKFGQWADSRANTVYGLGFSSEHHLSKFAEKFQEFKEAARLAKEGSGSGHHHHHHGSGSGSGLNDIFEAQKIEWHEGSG

The assay has as its target T1, Homer1 EVH1 domain. The assay can be described thus: enrichment score (AUC of log2 frequency ratio across FACS sorting rounds) (log2 AUC); higher = stronger enrichment for Homer1 EVH1 binding.
On to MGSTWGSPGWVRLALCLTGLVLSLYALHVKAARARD, for which the enrichment score was 0.577.
The figure for SPSWYWDTVTKICVFLFAFVVPILIITVCYSLMLLR is -1.5; for SGKVVWITATMPYVVLTALLLRGVTLPGAIDGIRAY it is 0.779; for SFLFSFYMASLFLGILAMAYEEEKQRVGEISKKIEP it is 2.84.
For CWLDFLIVNISLISLTAKILEYSEVAPIKALRPLRA, the enrichment score was -0.993.
In the case of VAMVMDHILLGVFMLVCIIGTLAVFAGRLIELNQQG, the enrichment score was determined as 1.68.
For WPTFQILMWSLSNSWVALKDLVLLLFTFIFFSAAFG, the enrichment score was found to be 0.34.
As to GPQKTAVAVLCTLLGLLSALENVAVLYLILSSHQLR, the enrichment score was 3.07.
For DEFQLLHRHRELFTLFIVLATFLLSLFCVTNGGIYV, the enrichment score is 2.83.
The value for IFVFVCVFGTIGMFLQPLFQNYTTTTFLHSDHSAPS was 2.68.
